Measured values as given in PubChem BioAssay AID328 (DTP/NCI, 2004).
The list shows only some results of the screen, not a fair sample: it gathers tests that were run many times, whatever their T/C, doses with no T/C, and many T/C values between a quarter and a half above the control. Other doses and runs of a compound stand elsewhere. T/C gives the treated animals as a percentage of the vehicle group. Some doses have a count of surviving animals in place of a T/C: the source files T/C as zero there, which appears to mark a toxic dose or a test without result, not a measured value. Some doses without a T/C left all or most animals alive at the check, yet need not have been tolerated: survival well below the control is almost never listed, so the zero probably covers shortened survival too. Survivors were counted at the toxicity check, usually on the fifth day, unless a day is given; later deaths do not show. Schedules are NCI's codes, read here as Q, the interval in days (D) or hours (H), X, the number of doses. Some doses were run more than once; the results are listed from low to high. For survival time, this PubChem deposit counts one and a half times the control or more as active, and values a quarter to a half above the control carry no call in these data; other NCI protocols may use other cut-offs. Some T/C values carry the count of animals alive at the toxicity check (mostly the fifth day); where none is given, no animal had died by that day.

Test system: BDF1 mice, P388 leukemia ip, median survival T/C
Test: NCI In Vivo Anticancer Drug Screen. Data for tumor model P388 Leukemia (intraperitoneal) in B6D2F1 (BDF1) mice
Conditions: T/C endpoint: median survival time, higher T/C = longer survival
How it was run: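 Vehicle-dosed animals serve as the reference; survival of compound-dosed, tumour-implanted mice is divided by it.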

[1] = dose: 400.0 mg/kg/injection, schedule: Q01DX009 (ip), vehicle: Klucel (hydroxypropylcellulose) (HPC)
[2] = dose: 400.0 mg/kg/injection, schedule: Q04DX003 (ip), vehicle: Klucel (hydroxypropylcellulose) (HPC)
[3] = dose: 200.0 mg/kg/injection, schedule: Q01DX009 (ip), vehicle: saline
[4] = dose: 100.0 mg/kg/injection, schedule: Q04DX003 (ip), vehicle: saline with Tween-80
[5] = dose: 100.0 mg/kg/injection, schedule: Q01DX009 (ip), vehicle: saline
[6] = dose: 200.0 mg/kg/injection, schedule: Q04DX003 (ip), vehicle: saline
[7] = dose: 50.0 mg/kg/injection, schedule: Q01DX009 (ip), vehicle: saline
[8] = dose: 200.0 mg/kg/injection, schedule: Q01DX009 (ip), vehicle: saline with Tween-80
[9] = dose: 25.0 mg/kg/injection, schedule: Q01DX009 (ip), vehicle: saline with Tween-80
[10] = dose: 50.0 mg/kg/injection, schedule: Q01DX009 (ip), vehicle: Klucel (hydroxypropylcellulose) (HPC)
[11] = dose: 12.5 mg/kg/injection, schedule: Q01DX009 (ip), vehicle: saline
[12] = dose: 25.0 mg/kg/injection, schedule: Q01DX009 (ip), vehicle: saline

Structure (SMILES): CN(C)N=Nc1ccccc1
- survivor count (dose: 62.5 mg/kg/injection, schedule: Q01DX009 (ip), vehicle: Klucel (hydroxypropylcellulose) (HPC)): 4 of 6
- T/C (dose: 82.0 mg/kg/injection, schedule: Q04DX003 (ip), vehicle: saline): 131 % of control
- survivor count (dose: 125.0 mg/kg/injection, schedule: Q01DX009 (ip), vehicle: Klucel (hydroxypropylcellulose) (HPC)): 0 of 6
- T/C (dose: 125.0 mg/kg/injection, schedule: Q04DX003 (ip), vehicle: Klucel (hydroxypropylcellulose) (HPC)): 129 [5 of 6 alive] and 140 % of control
- survivor count (dose: 187.0 mg/kg/injection, schedule: Q04DX003 (ip), vehicle: Klucel (hydroxypropylcellulose) (HPC)): 0 of 6
- survivor count (dose: 187.0 mg/kg/injection, schedule: Q04DX003 (ip), vehicle: saline): 2 of 6
- survivor count (dose: 250.0 mg/kg/injection, schedule: Q04DX003 (ip), vehicle: Klucel (hydroxypropylcellulose) (HPC)): 0 of 6

Structure (SMILES): COc1cc2c(c3c1c(=O)c1cc(OC(C)=O)ccc1n3C)C=CC(C)(C)O2
- survivor count (dose: 5.0 mg/kg/injection, schedule: Q01DX009 (ip), vehicle: Klucel (hydroxypropylcellulose) (HPC)): 3 of 6

Structure (SMILES): COc1cc(Cc2nccc3cc(OC)c(OC)cc23)c(C(C)=O)cc1OC
- T/C (dose: 12.0 mg/kg/injection, schedule: Q01DX009 (ip), vehicle: saline): 142 % of control
- T/C (dose: 18.0 mg/kg/injection, schedule: Q01DX009 (ip), vehicle: saline): 142 % of control

Structure (SMILES): Cc1cc(N(CCCl)CCCl)ccc1C=NC1CCCC1
- T/C (dose: 88.0 mg/kg/injection, schedule: Q01DX009 (ip), vehicle: Klucel (hydroxypropylcellulose) (HPC)): 130 % of control
- survivor count (dose: 300.0 mg/kg/injection, schedule: Q01DX009 (ip), vehicle: Klucel (hydroxypropylcellulose) (HPC)): 6 of 6
- survivor count [1]: 1 of 6
- T/C [2]: 145 % of control

Structure (SMILES): CC(=O)N(C(C)=O)c1cc([N+](=O)[O-])ccc1C
- survivor count (dose: 400.0 mg/kg/injection, schedule: Q04DX003 (ip), vehicle: saline with Tween-80): 5 of 6

Structure (SMILES): OC(c1ccc(Cl)cc1)C1CCNCC1 (stereo unspecified)
- survivor count [3]: 2 of 6

Structure (SMILES): COc1cc2c(C)c[n+]3cc4cc5c(OC)c(OC)ccc5cc4cc3c2cc1OC (tested in a mixture with another compound)
- survivor count (dose: 50.0 mg/kg/injection, schedule: Q04DX003 (ip), vehicle: other): 3 of 6
- survivor count (dose: 100.0 mg/kg/injection, schedule: Q04DX003 (ip), vehicle: other): 0 of 6
- survivor count (dose: 200.0 mg/kg/injection, schedule: Q04DX003 (ip), vehicle: other): 0 of 6
- survivor count (dose: 400.0 mg/kg/injection, schedule: Q04DX003 (ip), vehicle: other): 0 of 6

Structure (SMILES): C=CS(=O)(=O)Cc1ccccc1
- survivor count [4]: 1 of 6

Structure (SMILES): [O-][n+]1ccc(Cl)c2ccsc21
- survivor count [4]: 6 of 6

Structure (SMILES): ClC1OCCOC1Cl (stereo unspecified)
- survivor count [5]: 6 of 6
- survivor count [6]: 3 of 6

Structure (SMILES): CCCCOc1ccc(OCCCCCCCCCC[N+](C)(C)C)cc1
- survivor count (dose: 1.56 mg/kg/injection, schedule: Q01DX009 (ip), vehicle: Klucel (hydroxypropylcellulose) (HPC)): 6 of 6

Structure (SMILES): CC(C)(CBr)C(=O)N1CCN(C(=O)C(C)(C)CBr)CC1
- T/C (dose: 13.0 mg/kg/injection, schedule: Q04DX003 (ip), vehicle: Klucel (hydroxypropylcellulose) (HPC)): 136 % of control
- survivor count (dose: 150.0 mg/kg/injection, schedule: Q04DX003 (ip), vehicle: Klucel (hydroxypropylcellulose) (HPC)): 5 of 6

Structure (SMILES): C[CH2][Sn]([CH2]C)([O]S(=O)(=O)CC12CCC(CC1=O)C2(C)C)[O]S(=O)(=O)CC12CCC(CC1=O)C2(C)C
- T/C (dose: 6.25 mg/kg/injection, schedule: Q01DX009 (ip), vehicle: saline): 149 % of control [5 of 6 alive]
- survivor count [7]: 0 of 6

Structure (SMILES): Cc1ccc(-c2nc3ccccc3c(=O)n2/N=C/c2ccccc2)cc1
- survivor count [8]: 6 of 6

Structure (SMILES): CCCCCCCCCCCCCC(C)NCc1ccccc1 (stereo unspecified)
- survivor count [9]: 6 of 6
- survivor count (dose: 50.0 mg/kg/injection, schedule: Q01DX009 (ip), vehicle: saline with Tween-80): 3 of 6

Structure (SMILES): CCN(CC)CCCC(C)Nc1c2ccc(Cl)cc2nc2cc(Cl)ccc12 (stereo unspecified)
- T/C (dose: 25.0 mg/kg/injection, schedule: Q01DX009 (ip), vehicle: Klucel (hydroxypropylcellulose) (HPC)): 135 % of control
- T/C [10]: 132 % of control
- survivor count (dose: 100.0 mg/kg/injection, schedule: Q01DX009 (ip), vehicle: Klucel (hydroxypropylcellulose) (HPC)): 4 of 6

Structure (SMILES): O=C(CCBr)N1CCN(C(=O)CCBr)CC1
- survivor count (dose: 80.0 mg/kg/injection, schedule: Q01DX010 (ip), vehicle: saline): 6 of 6

Structure (SMILES): COC(OC)c1[nH]c(=O)[nH]c(=O)c1F.[Hg]
- survivor count (dose: 100.0 mg/kg/injection, schedule: Q04DX003 (ip), vehicle: saline): 0 of 6
- survivor count [6]: 0 of 6
- survivor count (dose: 400.0 mg/kg/injection, schedule: Q04DX003 (ip), vehicle: saline): 0 of 6

Structure (SMILES): O=C(c1ccccc1)c1c2ccccc2c(C(=O)c2ccccc2)c2ccccc12
- survivor count [1]: 4 of 6

Structure (SMILES): CNCCOC(=O)/C=C1/CCC2C(C(O)CC3C(C)(C(=O)OC)CCCC23C)C1C (stereo unspecified)
- survivor count [11]: 1 of 6
- survivor count [12]: 0 of 6
- survivor count [7]: 0 of 6
- survivor count [5]: 0 of 3
- survivor count [3]: 0 of 3
- survivor count (dose: 400.0 mg/kg/injection, schedule: Q01DX009 (ip), vehicle: saline): 0 of 3

Structure (SMILES): C=CCSc1nc(N)nc2nc[nH]c12
- survivor count (dose: 200.0 mg/kg/injection, schedule: Q01DX009 (ip), vehicle: saline sonified): 4 of 6
- survivor count (dose: 400.0 mg/kg/injection, schedule: Q01DX009 (ip), vehicle: saline sonified): 0 of 6

Structure (SMILES): c1ccc(NNc2c3ccccc3nc3ccccc23)cc1
- survivor count [8]: 3 of 6

Structure (SMILES): O=[N+]([O-])CC(OCCO)C(Cl)(Cl)Cl (stereo unspecified)
- survivor count (dose: 25.0 mg/kg/injection, schedule: Q01DX009 (ip), vehicle: acetone): 2 of 6
- survivor count (dose: 60.0 mg/kg/injection, schedule: Q01DX001 (ip), vehicle: Klucel (hydroxypropylcellulose) (HPC)): 0 of 6
- survivor count (dose: 60.0 mg/kg/injection, schedule: Q04DX003 (ip), vehicle: saline with Tween-80): 0 of 6
- survivor count (dose: 90.0 mg/kg/injection, schedule: Q01DX001 (ip), vehicle: Klucel (hydroxypropylcellulose) (HPC)): 0 of 6
- survivor count (dose: 90.0 mg/kg/injection, schedule: Q04DX003 (ip), vehicle: saline with Tween-80): 0 of 6
- survivor count (dose: 135.0 mg/kg/injection, schedule: Q01DX001 (ip), vehicle: Klucel (hydroxypropylcellulose) (HPC)): 0 of 6
- survivor count (dose: 135.0 mg/kg/injection, schedule: Q04DX003 (ip), vehicle: saline with Tween-80): 0 of 6

Structure (SMILES): C[C@]1(O)CC[C@H]2[C@@H]3CCC4=CC(=O)CCC4=C3C=C[C@@]21C
- survivor count [10]: 6 of 6
- survivor count [2]: 1 of 6

Structure (SMILES): Clc1ccc(N=C/C=C\C=C/Nc2ccc(Cl)cc2)cc1
- survivor count (dose: 40.0 mg/kg/injection, schedule: Q01DX009 (ip), vehicle: saline with Tween-80): 7 of 7
- survivor count (dose: 80.0 mg/kg/injection, schedule: Q01DX009 (ip), vehicle: saline with Tween-80): 5 of 7

Structure (SMILES): CCC[CH2][Sn]([CH2]CCC)([O]C(C)=O)[O]C(C)=O
- T/C (dose: 3.0 mg/kg/injection, schedule: Q01DX009 (ip), vehicle: saline): 144 % of control
- T/C (dose: 6.15 mg/kg/injection, schedule: Q01DX009 (ip), vehicle: saline): 145 % of control
- survivor count [11]: 3 of 6
- survivor count [9]: 2 of 6
- survivor count [12]: 0 of 6 and 1 of 6
- survivor count [7]: 0 of 6
